PubChem BioAssay AID651640 (Broad Institute, 2012)
The whole screen tested about 350,000 compounds, of which about 6,000 (1.7%) were called active. Inconclusive means that the source gave no clear call. Such entries were picked first, then a sample of the others. Cut-off read from the data, not from the text of the source: active = CPE inhibition above about 20% (passing the limit was not always enough); inconclusive = no clear call, values can overlap the other calls; tested in BHK-21 cells.

Assay: protection of cells from dengue 2 killing – plate reader, single concentration, primary screen (AID 651640);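 note: 0% = median of neutral control wells and 100% = median of positive control wells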
Settings: DENV2-infected cells, cytopathic effect rescue, at 9.99 µM, hits give high values

Compound | CPE inhibition
CC(=O)Nc1ccc(Nc2nc3ccccc3nc2NS(=O)(=O)c2ccc(Cl)c([N+](=O)[O-])c2)cc1 | inconclusive: 53.6%
CCCNC(=O)N1C[C@H](O)COC[C@H]2O[C@H](CC(=O)N[C@@H]3CCN(Cc4ccccc4)C3)CC[C@@H]21 | inconclusive: 38.7%
CCS(=O)(=O)Nc1ccc2c(c1)C(=O)N(C)C[C@H](OC)[C@@H](C)CN(C(=O)COC)[C@H](C)CO2 | active: 81.9%
COc1ccc(CNC(=O)COC(=O)CCS(=O)(=O)c2ccc(C)cc2)cc1OC | inactive: -2.46%
CC1(C)Cc2c(cnn2-c2ccc(F)cc2)C(NC(=O)c2ccc(=O)oc2)C1 (stereo not given) | active: 70.1%
O=C(Cc1ccccc1)N1C[C@H]2[C@@H](c3ccccc31)[C@@H](CO)N2C(=O)Cc1ccccc1 | inconclusive: 29.9%
COc1ccc(-c2ccc(C(=O)O)c(=O)[nH]2)cc1 | inactive: -4.48%
CN(C)S(=O)(=O)c1cccc(NC(=O)c2cc(=O)[nH]c(=O)[nH]2)c1 | inconclusive: 25.8%
C[C@@H]1CCCCO[C@H](CN(C)S(=O)(=O)c2cccs2)[C@@H](C)CN([C@H](C)CO)C(=O)c2cc(NS(=O)(=O)c3cccs3)ccc2O1 | active: 59.4%
CCOC(=O)C1=C(C)N(CCCCCC(=O)O)C(=O)NC1c1ccccc1Cl (stereo not given) | inactive: 1.12%
NC(=S)c1cc2cc(Br)ccc2oc1=O | inconclusive: 23.6%
C[C@@H]1CN([C@@H](C)CO)C(=O)c2cc(-c3ccccc3F)cnc2O[C@@H]1CN(C)C(=O)C1CCOCC1 | active: 60.1%
CCN(CC)CCN1C(=O)C(=O)/C(=C(/O)c2ccc(S(=O)(=O)N3CCOCC3)cc2)C1c1ccccc1 (stereo not given) | inactive: -1.42%
C[C@@H]1CN([C@H](C)CO)C(=O)CCCn2nncc2CO[C@@H]1CN(C)S(=O)(=O)c1ccc(Oc2ccccc2)nc1 | inconclusive: 45.5%
O=C(Nc1cc(F)ccc1F)N1CC(=O)N2[C@@H](CO)[C@@H](c3ccc(-c4cccnc4)cc3)[C@@H]2C1 | active: 23.1%
CCCN1C[C@H](C)[C@@H](OC)CN(C)C(=O)c2cc(NC(=O)c3cccc(F)c3)ccc2OC[C@@H]1C | inactive: -8.72%
COC(=O)C[C@@H]1CC[C@@H]2[C@@H](COc3ccc(NC(=O)Nc4cccc(C#N)c4)cc3C(=O)N2C)O1 | inconclusive: 81.4%
COc1ccc2c3c([nH]c2c1)[C@@H](CO)N(C(=O)C1CCOCC1)CC31CCN(C(=O)NC(C)C)CC1 | inactive: 5.53%
C/C(=N\NC(=O)C1(C)CC1(Br)Br)c1ccc(NC(=O)C2CCC2)cc1 (stereo not given) | inconclusive: 22.5%
COc1ccc(C2/C=C\CN(C(=O)Oc3ccc(C(F)(F)F)cc3)CC(=O)N2Cc2ccc(F)cc2)cc1 (stereo not given) | inconclusive: 66.6%
CN1OC[C@@H]2CN(C(=O)c3cccnc3)[C@H](c3ccc(N4CCCCC4)cc3)C[C@@H]21 | active: 42.6%
COC(=O)c1cn(C(=O)c2cc(Cl)ccc2Cl)c2ccccc12 | inconclusive: 43.2%
C=CCOc1ccc(CNCc2cccnc2)cc1OCC | active: 22.4%
Cc1ccc(S(=O)(=O)N(C)C[C@@H]2OCCCC[C@H](C)Oc3ccc(NC(=O)Nc4ccccc4)cc3C(=O)N([C@@H](C)CO)C[C@H]2C)cc1 | inconclusive: 27.9%

Compound | CPE inhibition
CCN(CC)S(=O)(=O)c1ccc(C(=O)Nc2ccc(C(F)(F)F)n(C)c2=O)cc1 | inconclusive: 40.2%
C[C@H](CO)N1C[C@H](C)[C@@H](CN(C)Cc2ccccn2)Oc2ncc(C3=CCCC3)cc2C1=O | active: 49.6%
CO[C@@H]1CN(C)C(=O)c2ccc(NS(C)(=O)=O)cc2OC[C@H](C)N(Cc2nccs2)C[C@@H]1C | active: 71.8%
C[C@@H]1CCCCO[C@@H](CN(C)S(=O)(=O)c2ccc(F)cc2)[C@@H](C)CN([C@@H](C)CO)C(=O)c2cc(NC(=O)c3ccccc3)ccc2O1 | active: 92.9%
CC1CCN(CCc2nc3cc(NC(=O)COc4ccc(Cl)cc4)ccc3n2C)CC1 | inconclusive: 27.1%
CCNC(=O)[C@H]1[C@H](CO)[C@H]2Cn3c(ccc(-c4cccnc4)c3=O)[C@H]2N1Cc1ccc2c(c1)OCO2 | inactive: -1.8%
CC(NC(=O)COC(=O)c1cc([N+](=O)[O-])ccc1N1CCOCC1)c1ccc(F)cc1 (stereo not given) | inconclusive: 45.3%
C[C@H](CO)N1C[C@H](C)[C@H](CN(C)Cc2ccc(C(F)(F)F)cc2)Oc2c(NC(=O)C3CC3)cccc2C1=O | inconclusive: 32.1%
Cc1ccc(-c2nn(C)c(=O)c3ccccc23)cc1S(=O)(=O)NCCN(C)C | inconclusive: 24.3%
CCOC(=O)c1ccc2c(c1)n(CCCS(=O)(=O)[O-])c(/C=C/c1ccc(Cl)cc1)[n+]2CC | inconclusive: 21.7%
C[C@H]1CN=C(Nc2ccccc2)N1CCc1ccccc1 | inconclusive: 48.7%
CC1=C/C(=N\NC(=O)c2ccccc2)CC1 | inconclusive: 28.4%
O=C(COC(=O)Cc1ccccc1F)Nc1ccc(Cl)cn1 | inconclusive: 21.1%
O=[N+]([O-])c1ccc(-c2nc(-c3ccncc3)no2)cc1 | inconclusive: 22%
Cc1ccc(NC(=O)CC2C(=O)N(Cc3ccccc3)C(=S)N2NC(=O)c2ccccc2)c(C)c1 (stereo not given) | inconclusive: 28.8%
CCN(C[C@H]1N[C@@](Cc2ccccc2)(C(=O)OC)[C@H]2C(=O)N(C)C(=O)[C@@H]12)C(=O)Nc1ccc(C)cc1 | inconclusive: 20.3%
O=C(Cc1n[nH]c(=O)c2ccccc12)OCC(=O)N(Cc1ccccc1)Cc1ccccc1 | inactive: -1.14%
CC(C)NC(=O)Nc1cccc2c1O[C@H](CN(C)S(=O)(=O)c1cn(C)cn1)[C@@H](C)CN([C@@H](C)CO)C2=O | inconclusive: 29.6%
Cc1ccc(CC(NC(=O)C2CCCCC2)C(=O)O)cc1 (stereo not given) | inconclusive: 20.8%
O=C(NCCN1CCN(C(=O)Nc2ccccc2)CC1)Nc1ccccc1 | inconclusive: 46%
O=C(CN1CCOCC1)N[C@@H]1CC[C@H](CCNS(=O)(=O)c2ccccc2F)O[C@H]1CO | active: 28.5%
Cc1noc(C)c1C(=O)Nc1ccc(C#N)cc1 | inconclusive: 35.5%
C[C@H](CO)N1C[C@H](C)[C@@H](CN(C)C(=O)NC2CCCCC2)OCCCC[C@H](C)Oc2ccc(NC(=O)Nc3ccc(C(F)(F)F)cc3)cc2C1=O | inconclusive: 34.9%
Cc1cc2c(c(=O)o1)[C@@]1(C(=O)N(C)c3ccccc31)C1=C(CC(C)(C)OC1=O)O2 | inconclusive: 22.6%

Compound | CPE inhibition
C[C@H](NC(=O)[C@H]1N[C@H]2c3ccc(C4=CCCCC4)c(=O)n3C[C@H]2[C@@H]1CO)c1ccccc1 | inactive: 3.08%
Cc1cc(NS(=O)(=O)c2ccc(NC(=O)/C=C/c3ccccc3)cc2)nc(C)n1 | inconclusive: 28.9%
CC(C)NC(=O)N(C)C[C@H]1OCCCC[C@@H](C)Oc2ccc(NC(=O)c3ccncc3)cc2C(=O)N([C@@H](C)CO)C[C@@H]1C | inactive: 2.1%
C[C@H](CO)N1C[C@H](C)[C@H](CN(C)S(=O)(=O)c2cn(C)cn2)OCCCC[C@H](C)Oc2ccc(N(C)C)cc2C1=O | inactive: 1.23%
CCNC(=O)[C@@H]1[C@@H](CO)[C@@H]2Cn3c(ccc(-c4ccccc4)c3=O)[C@H]1N2C(=O)CC1CC1 | inactive: 2.67%
CCN(C(=O)COC(=O)CCc1ccc(OC)cc1)c1c(N)n(Cc2ccccc2)c(=O)[nH]c1=O | inactive: -4.63%
COC(=O)[C@@]12C[C@@H](CC(=O)NCc3ccc(OC)c(OC)c3)C(=O)N(Cc3ccco3)C1=CCC(C)(C)C2 | active: 21.9%
CC(C)NC(=O)Nc1cccc2c1O[C@H](CN(C)Cc1ccc(C(=O)Nc3ccccc3N)cc1)[C@H](C)CN([C@@H](C)CO)C2=O | active: 21.2%
O=C(N[C@@H]1CC[C@@H](CCNS(=O)(=O)c2ccc(F)cc2)O[C@H]1CO)c1cnccn1 | active: 50.7%
Cc1ccc(-c2ccc3c(c2)O[C@@H](CN(C)Cc2ccc(C(=O)O)cc2)[C@H](C)CN([C@H](C)CO)S3(=O)=O)cc1 | inactive: -6.8%
COC(=O)c1ccc2nc(-c3ccco3)c(Cc3ccccc3OC)n2c1 | inconclusive: 21.7%
CCN(C(=S)Nc1cccc2ccccc12)c1ccccc1 | inconclusive: 21.8%
COc1ccc(NCC(O)COc2ccc(C(C)(C)C)cc2)cc1 (stereo not given) | inactive: -7.64%
O=C(C1CC1)N1CC2(C1)[C@H](c1ccccc1)[C@H](CO)N2Cc1ccccc1F | inactive: 3.12%
CC(OC(=O)c1ccc2c(=O)n3c(nc2c1)CCC3)C(=O)NC1CCCCC1C (stereo not given) | active: 33%
Cc1ccc(S(=O)(=O)N(C)C[C@@H]2Oc3ncc(C#Cc4ccc(C(F)(F)F)cc4)cc3C(=O)N([C@H](C)CO)C[C@@H]2C)cc1 | inconclusive: 42.9%
CC(=O)NCCc1nc2ccccc2n1CCOc1cccc(C)c1 | inactive: -0.145%
COc1ccc(S(=O)(=O)Nc2ccc3c(c2)C(=O)N([C@@H](C)CO)C[C@@H](C)[C@H](CN(C)S(=O)(=O)c2ccc(OC)cc2)O3)cc1 | inconclusive: 28.4%
CCS(=O)(=O)Nc1ccc2c(c1)C(=O)N(C)C[C@H](OC)[C@H](C)CN(C(=O)C1CC1)[C@@H](C)CO2 | inactive: -2.94%
COc1ccc(C)cc1NC(=O)c1nn(C)cc1Br | inconclusive: 32.8%
Nc1ncc(-c2ccc(F)cc2)nc1N1CCN(CCO)CC1 | active: 27.2%
Cc1ccc(S(=O)(=O)Nc2ccc3c(c2)C(=O)N([C@H](C)CO)C[C@@H](C)[C@@H](CN(C)S(=O)(=O)c2ccccc2)OCCCC[C@@H](C)O3)cc1 | inactive: -0.074%

Already shown: 3 of the compounds above.
Compound | CPE inhibition
C[C@H](NC(=O)[C@H]1N[C@H]2c3ccc(C4=CCCCC4)c(=O)n3C[C@H]2[C@@H]1CO)c1ccccc1 | inactive: 3.08%
Cc1cc(NS(=O)(=O)c2ccc(NC(=O)/C=C/c3ccccc3)cc2)nc(C)n1 | inconclusive: 28.9%
CC(C)NC(=O)N(C)C[C@H]1OCCCC[C@@H](C)Oc2ccc(NC(=O)c3ccncc3)cc2C(=O)N([C@@H](C)CO)C[C@@H]1C | inactive: 2.1%
